The values are deposited in ChEMBL (CHEMBL3988442, “University of Dundee, Small-Polar-MMV Screening Library” (2021)).

Protein sequences, listed by entry. Tags and fused reporters are not part of them. Residues count along the entry.
UniProt P9WNZ1, whole entry: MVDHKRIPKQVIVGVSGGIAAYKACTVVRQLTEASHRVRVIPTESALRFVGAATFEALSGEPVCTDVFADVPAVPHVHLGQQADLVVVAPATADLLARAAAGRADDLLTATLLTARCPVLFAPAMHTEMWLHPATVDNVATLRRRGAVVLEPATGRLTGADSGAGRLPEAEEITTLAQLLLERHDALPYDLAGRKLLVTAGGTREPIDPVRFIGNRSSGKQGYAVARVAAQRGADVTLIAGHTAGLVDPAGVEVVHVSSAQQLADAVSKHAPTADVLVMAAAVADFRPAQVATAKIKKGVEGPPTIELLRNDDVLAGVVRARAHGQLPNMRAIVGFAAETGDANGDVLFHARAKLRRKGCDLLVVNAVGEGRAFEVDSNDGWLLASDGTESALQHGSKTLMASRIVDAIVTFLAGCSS
UniProt Q4DA54, 1-478: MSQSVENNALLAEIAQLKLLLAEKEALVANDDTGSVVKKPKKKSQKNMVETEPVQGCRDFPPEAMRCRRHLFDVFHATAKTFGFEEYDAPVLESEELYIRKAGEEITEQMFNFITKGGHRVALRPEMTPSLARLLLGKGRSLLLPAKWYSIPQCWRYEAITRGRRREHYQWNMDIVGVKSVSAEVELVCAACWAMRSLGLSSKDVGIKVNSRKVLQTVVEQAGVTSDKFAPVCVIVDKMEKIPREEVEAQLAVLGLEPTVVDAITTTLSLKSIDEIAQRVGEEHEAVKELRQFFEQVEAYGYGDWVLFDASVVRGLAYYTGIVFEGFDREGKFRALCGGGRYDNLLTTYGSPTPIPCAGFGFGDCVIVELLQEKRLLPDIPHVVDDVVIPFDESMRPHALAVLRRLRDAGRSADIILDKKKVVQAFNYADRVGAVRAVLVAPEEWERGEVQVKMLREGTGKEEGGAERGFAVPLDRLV

CoaBC: 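Coenzyme A biosynthesis protein CoaBC, Mycobacterium tuberculosis (UniProt P9WNZ1). Enzyme assay of CoaBC with a phosphate dye (Biomol Green) read at 650 nm. Concentration: 30 µM. Higher reads as stronger inhibition, judged from the few compounds that gave an IC50. Most strong results did not repeat in a second test. About 67,000 compounds were tested under these conditions; 0.06% (about 40) showed 50% or more at least once.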
TcHisRS: 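Enzyme assay of histidyl-tRNA synthetase; the read-out is not stated. Target: Histidine-tRNA ligase, Trypanosoma cruzi CL Brener (UniProt Q4DA54). Tested at 30 µM. The record gives no direction; compounds that gave an IC50 in retests scored well above the rest, so higher reads as stronger inhibition. Size under these conditions: about 69,000 compounds, about 31 of them at 50% or above in at least one test.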

Each number is a percent effect as filed.
The record does not define 0% and 100%; most values in the screen are far below 50% and negative numbers occur (in some assays of this library far below -100).
The compounds are a random part of those screened.
Two or more numbers in one place are separate tests of the same structure; such repeats can differ widely.
A dash means the value is not listed here; it may have been measured.

structure	CoaBC	TcHisRS
Cc1cccc(CN2CCC3(CCN(c4cccnc4)C3=O)C2)n1 (centres undefined)	4.56%	13.73%
CCOCC1CN(Cc2cc(C)on2)Cc2cn(C)nc21 (centres undefined)	-0.9677%	0.4975%
CN1CC(Oc2ccc(Cl)cc2)=NC(SCC(=O)Nc2ccccc2)=N1	13.03%	4.762%
Cc1cccc(-c2nc(C)nn2CN2CCC3(CC2)OCCO3)c1	0.2066%	4.762%
CC1(C)Cc2cc(-c3cncn3CCNC3CCS(=O)(=O)C3)ccc2O1 (centres undefined)	10.21%	5.385%
O=C(C[C@@H]1COC[C@H]2CN(CC3CC3)C[C@@H]12)NCc1cccnc1	5.939%	9.497%
Cc1noc(-c2ccnc(Oc3ccc(CN4CCCC4)cc3C)c2)n1	-7.576%	4%
CC(O)CNc1c(NCc2ccco2)c(=O)c1=O (centres undefined)	0.9685%	10%
O=C(NCCCC(=O)N1CCN(CC2CC2)c2ccccc21)C1CC1	-5.703%	5.82%
Cn1ccc(C(=O)N2CCCC(Cc3cccc4ncccc34)C2)n1 (centres undefined)	7.222%	-2.703%
O=C(c1ccccc1)N1CCC2(CC1)CC(Oc1ccccc1)CO2 (centres undefined)	15.91%	-0.4975%
c1nc2n(c1CN1CCCCC1)CCN(C1CCOC1)CC2 (centres undefined)	2.397%	4.372%
COc1ncnc2c1CCN(Cc1nccs1)CC2	-5.906%	2.299%
COc1cc2[nH]c(=O)c(CN3CCC[C@@H]3C(N)=O)cc2c(OC)c1OC	-1.739%	-1.538%
Cn1cc(NC(=O)Cn2cc(-c3ccccc3)ncc2=O)cn1	-1.533%	2.424%
N#Cc1ccccc1CC1CCCS(=O)(=O)C1 (centres undefined)	-0.4348%	-4.813%
Cc1n[nH]c(C2CN(C(=O)c3ccoc3C)CCO2)n1 (centres undefined)	-3.659%	-0.9804%
COc1cc(OC)cc(C2NC(=O)CN2Cc2ccc(Br)cc2)c1 (centres undefined)	1.942%	7.921%
CCC1(CC)CC(=O)N(CC(O)c2cc(F)ccc2F)C1=O (centres undefined)	-6.884%	0.8696%
Clc1ccccc1C1(c2ccnc(C3CCCC3)n2)CCNCC1	1.269%	-0.4484%
O=C(c1ccc(O)nc1)N1CCc2ccc(O)cc2C1	4.268%	12.65%
COc1ccccc1C(=O)N1C[C@@H]2CCCCN(CC(N)=O)[C@@H]2C1	6.503%	6.202%
COc1cc(C(C)=O)ccc1SCC(=O)Nc1ccc(C)cn1	-	9.211%
COc1ccc2c(c1)C(=O)NC1(CC2)CCN(Cc2ccncc2)C1 (centres undefined)	-0.7884%	0%
COCCc1noc(Cn2ccc3ccccc3c2=O)n1	-1.023%	3.03%
CCN(Cc1ccc(OC)c(F)c1)Cc1nc2c(cnn2C)c(=O)[nH]1	2.872%	6.122%
Cc1ncsc1C(=O)NC1CCN(CCCC#N)CC1	7.273%	5.187%
CC[C@H]1CN2CC[C@H]1C[C@@H]2CNCc1ccc(N(C)C)cc1	-15.12%	11.88%
CC(=O)Nc1c(C)noc1/C=C\c1ccc(C)c(S(=O)(=O)NC2CC2)c1	-6.456%	5%
CCc1nc2n(n1)CC(NCc1cc(OC)c3c(c1)OCO3)CC2 (centres undefined)	-7.885%	3.429%
CCS(=O)(=O)N1CCc2c(COC)cncc2C1	-4.444%	3.175%
CN(C)c1ccc(-c2cc(=O)n3c(n2)CCCCC3)cc1	0.1215%	2.97%
Cn1cc(Br)cc(NC(=O)CC(C)(C)C)c1=O	1.22%	-12.99%
Cn1cc(C(=O)NCc2cn3c(n2)CN(CC2CCOCC2)CC3)cn1	2.692%	6.952%
O=C1CN(c2ccc(CNC(=O)Nc3nnc(C4CC4)s3)cc2)CCN1	1.168%	15.49%
CC(C)CNC(=O)CNc1c(NCc2ccccn2)c(=O)c1=O	3.165%	-1.242%
CNC(=O)[C@@]12CCO[C@@H]1CCN(Cc1scnc1C)C2	1.901%	3.261%
CN(Cc1cccnc1)C1CC2(CCN(Cc3ccccn3)CC2)C1	2.75%	3.922%
CCNC(=O)[C@@H]1C[C@H](N)CN1c1cc(C(F)(F)F)nc(N(C)C)n1	6.748%	6.173%
COc1ccc(C(=O)c2cnc(C(C)C)n2C)cc1	-26.56%	1.554%
Cc1nnc2n1CCN(C(C(N)=O)c1ccc(F)cc1)C2 (centres undefined)	-24.74%	12.95%
O[C@H]1CN(CCCOc2ccccc2F)CC[C@@]12CCCO2	-7.645%	6.818%
CC(C)N1CCC(N2CCOC3(CCCC3)C2)C1=O (centres undefined)	5.976%	-20%
CCN(CC)CCn1ccnc1-c1cccc(O)c1	-1.606%	6.383%
CN(Cc1cc(Br)cn1C)C(=O)c1ccon1	0.9938%	2.564%
Cc1cccc(C)c1OC1CN(Cc2cnc(-c3ccco3)nc2)C1	3.265%	5.844%
CCN(CCCNC(=O)c1cc2cccc(F)c2o1)S(C)(=O)=O	9.921%	3.448%
O=C(CN1CCCC1Cn1cncn1)NCCOc1cccc(F)c1 (centres undefined)	3.172%	1.515%
CC(C)(C)c1nc(CC(=O)Nc2cnccc2O)cs1	6.242%	2.762%
CC(O)CN1CCN(C(=O)c2cnn(-c3ccccc3Cl)c2)CC1 (centres undefined)	4.545%	15%
COc1ccc(C2Nc3cc(Cl)ccc3C3=NCCN32)cc1CO (centres undefined)	5.824%	2.996%
CSCCC(=O)N1CCCN(Cc2cnn(C(C)C)c2)CC1	18.42%	3.488%
CCNC(=O)c1ncn2c1CN(C)S(=O)(=O)c1ccccc1-2	1.935%	-2.479%
Cc1cn([C@@H]2CC3(CCNCC3)OC[C@@]2(C)O)c(=O)[nH]c1=O	-2.055%	4.857%
CC(C)CN1CC(C(=O)NCCNc2ncccn2)CC1=O (centres undefined)	10.13%	2.035%
COc1ccccc1N1CCN(C(=O)CCn2ccc(C)n2)CC1	-0.9223%	2%
O=C(C1CCOCC1)N1CCc2ncc(CN3CCOCC3)n2CC1	7.25%	7.843%
O=C(CCc1nccs1)N1CCN(c2cccnn2)CC1	5.128%	0.3774%
CS(=O)(=O)N1CC[C@H]2O[C@@H](C(=O)NCc3ccco3)CC[C@H]21	8.143%	1.961%
COCCN(Cc1ccncc1)C(=O)CCSCc1ccc(F)cc1	0%	3.226%
CCN(CC)S(=O)(=O)c1ccc(C(F)(F)F)cc1C#N	-8.403%	3.333%
CC(C)c1nnc2sc(CC3CN(Cc4ccccc4)CCO3)nn12 (centres undefined)	3.831%	-10.91%
N#Cc1cccc(N2CCC(c3nccn3Cc3cscn3)CC2)n1	-2.571%	7.821%
CC(C)CN(Cc1ccc(O)c(C(=O)O)c1)Cc1cnn(C)c1	-1.411%	0%
O=C(NCc1cccs1)C1CNCC12CCOCC2 (centres undefined)	-8.387%	7.463%
Cc1nc(C2CCCN(C(=O)c3cc(Cl)c[nH]3)C2)sc1C (centres undefined)	3.376%	4.942%
CC(C)OCCCNC(=O)[C@@]12CNC[C@@H]1CN(S(C)(=O)=O)C2	-3.909%	5.759%
CS(=O)(=O)c1cccc(C(=O)NCCCN2CCc3ccccc3C2)c1	5.483%	-5.085%
CCCc1nnsc1C(=O)NCC1CCN(c2ncccn2)CC1	-0.8739%	3.061%
Cc1cccc(COCC2c3nnn(C)c3CCN2Cc2ccoc2)n1 (centres undefined)	-1.525%	9.836%
CNc1cc(C)nc(C2CN(Cc3ccc(Cl)cn3)CCO2)c1 (centres undefined)	5.081%	-0.7491%
CCc1ocnc1C(=O)N1CCOCC1CC(=O)c1ccccc1 (centres undefined)	0.2445%	-3.093%
COc1ccc2c(c1)C(=O)NC1(CC2)CCN(Cc2ccccc2)C1 (centres undefined)	4.205%	3.788%
COc1ccc(CNC(=O)NC(C)(CO)C2CC2)c(C(F)(F)F)c1 (centres undefined)	32.72% and 16.93%	6.14%
CCN(Cc1cccc2c1OCO2)C(=O)Nc1ccccn1	-6.971%	4.274%
O=C(Cc1cccc(O)c1)NCCNc1nccc(C(F)(F)F)n1	1.499%	9.091%
Cc1csc(N2CCN(Cc3cccnc3)CC2C)n1 (centres undefined)	6.203%	4.878%
CS(=O)(=O)c1ccc(NC(=O)NC2(c3ccccc3)CCC2)cc1	4.373%	4.167%

Some entries from above, unchanged:

{"structure": "COc1ncnc2c1CCN(Cc1nccs1)CC2", "CoaBC": -5.906, "TcHisRS": 2.299}
{"structure": "CC(C)OCCCNC(=O)[C@@]12CNC[C@@H]1CN(S(C)(=O)=O)C2", "CoaBC": -3.909, "TcHisRS": 5.759}
{"structure": "COc1ccccc1C(=O)N1C[C@@H]2CCCCN(CC(N)=O)[C@@H]2C1", "CoaBC": 6.503, "TcHisRS": 6.202}
{"structure": "O=C(C[C@@H]1COC[C@H]2CN(CC3CC3)C[C@@H]12)NCc1cccnc1", "CoaBC": 5.939, "TcHisRS": 9.497}
{"structure": "CNc1cc(C)nc(C2CN(Cc3ccc(Cl)cn3)CCO2)c1", "stereo": "centres undefined", "CoaBC": 5.081, "TcHisRS": -0.7491}